These results are taken from PubChem BioAssay AID262 (DTP/NCI, 2004).

The list is a part of this screen's results and no random one: its compounds were picked by chemical class. Other doses and runs of a compound may be missing. T/C is the treated group as % of the vehicle group. Schedule codes are those of the source, taken here to give the interval after Q, in days (D) or hours (H), and the number of doses after X. Some doses have a count of surviving animals in place of a T/C: the source holds a T/C of zero for them, seemingly a mark for toxic or unscored doses. Counts of survivors are from the toxicity check, whose day is not always given; animals may have died later.

This assay has as its system LX-1 lung xenograft sc, nude mice, tumor weight. Description: NCI In Vivo Anticancer Drug Screen. Data for tumor model Human Lung LX-1 Xenograft (subcutaneous) in NU/NU Swiss (nude) mice. The settings on record: T/C endpoint: optimum tumor weight change, schedule: Q04DX003 (ip), higher T/C = larger tumour. How it is done:
The antitumor activity of compounds was measured in mice bearing transplantable tumors. Survival or tumor size were measured and the results are expressed as the measurement made in the treated group (T) divided by the measurement made in the vehicle treated control group (C). The tumor model used in this assay is Human Lung LX-1 Xenograft (subcutaneous) in NU/NU Swiss (nude) mice

`C[N+](CCCl)(CCCl)Cc1ccc([N+](=O)[O-])cc1`: the T/C runs as follows: (dose: 12.5 mg/kg/injection, vehicle: saline, evaluated on day 34) 82 % of control; (dose: 25.0 mg/kg/injection, vehicle: saline, evaluated on day 34) 87 % of control; (dose: 50.0 mg/kg/injection, vehicle: saline, evaluated on day 34) 70 % of control.
For `CC1=CC(=O)C(N(CCCl)CCCl)=CC1=O`, where the note is “dose: 3.13 mg/kg/injection, vehicle: Klucel (hydroxypropylcellulose) (HPC), evaluated on day 39”, the T/C was 117 % of control.
For the compound `ClCCN(CCCl)c1ccccc1`, the T/C (dose: 50.0 mg/kg/injection, vehicle: saline with Tween-80, evaluated on day 34) was 84 % of control. Besides, the survivor count is 0 of 5 on day 36 (dose: 100.0 mg/kg/injection, vehicle: saline with Tween-80) and 0 of 5 on day 36 (dose: 200.0 mg/kg/injection, vehicle: saline with Tween-80).
